Results reported in the supplement of paper PMC10849652.
The list shows a part of the results.

Amino acid sequences for entries named in this document (tags omitted). A change or cut given only in a name is not applied to a line headed by its entry.
UniProt Q6NUT3: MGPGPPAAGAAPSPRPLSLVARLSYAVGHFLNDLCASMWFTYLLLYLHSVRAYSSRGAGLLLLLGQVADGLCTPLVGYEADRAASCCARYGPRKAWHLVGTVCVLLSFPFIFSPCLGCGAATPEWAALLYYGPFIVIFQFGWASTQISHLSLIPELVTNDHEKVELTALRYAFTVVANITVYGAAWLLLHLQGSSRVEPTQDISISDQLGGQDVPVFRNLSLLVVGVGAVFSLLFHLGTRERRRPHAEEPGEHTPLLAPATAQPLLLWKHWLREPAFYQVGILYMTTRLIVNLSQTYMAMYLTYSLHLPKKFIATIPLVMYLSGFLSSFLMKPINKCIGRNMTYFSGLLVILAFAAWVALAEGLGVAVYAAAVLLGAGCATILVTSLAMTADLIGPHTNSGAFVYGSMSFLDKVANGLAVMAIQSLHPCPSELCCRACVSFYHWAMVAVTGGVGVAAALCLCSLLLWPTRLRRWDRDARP
MCTS2P, A0A3B3IRV3, UniProt A0A3B3IRV3, whole entry, looked up: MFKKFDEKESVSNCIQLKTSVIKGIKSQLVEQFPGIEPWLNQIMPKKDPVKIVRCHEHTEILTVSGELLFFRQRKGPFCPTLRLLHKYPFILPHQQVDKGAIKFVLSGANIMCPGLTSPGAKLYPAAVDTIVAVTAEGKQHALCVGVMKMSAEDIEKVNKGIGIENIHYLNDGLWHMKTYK
UniProt Q14680: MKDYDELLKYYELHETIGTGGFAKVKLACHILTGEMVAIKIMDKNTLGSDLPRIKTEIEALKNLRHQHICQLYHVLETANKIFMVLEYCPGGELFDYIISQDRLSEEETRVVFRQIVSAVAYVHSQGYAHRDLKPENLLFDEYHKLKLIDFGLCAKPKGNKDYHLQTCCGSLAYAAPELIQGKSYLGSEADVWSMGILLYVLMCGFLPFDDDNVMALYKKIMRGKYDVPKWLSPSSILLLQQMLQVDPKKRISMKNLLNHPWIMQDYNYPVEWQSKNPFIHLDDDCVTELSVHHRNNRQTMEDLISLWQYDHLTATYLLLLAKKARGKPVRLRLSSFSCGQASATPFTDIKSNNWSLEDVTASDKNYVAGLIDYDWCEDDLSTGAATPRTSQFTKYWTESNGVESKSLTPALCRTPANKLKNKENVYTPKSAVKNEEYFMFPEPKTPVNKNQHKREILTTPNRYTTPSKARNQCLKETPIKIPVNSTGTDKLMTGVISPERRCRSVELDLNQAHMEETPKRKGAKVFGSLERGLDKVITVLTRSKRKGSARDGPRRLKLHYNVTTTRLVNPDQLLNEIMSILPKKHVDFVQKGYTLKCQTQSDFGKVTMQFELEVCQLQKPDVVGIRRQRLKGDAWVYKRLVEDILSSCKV
UniProt Q9NWA0: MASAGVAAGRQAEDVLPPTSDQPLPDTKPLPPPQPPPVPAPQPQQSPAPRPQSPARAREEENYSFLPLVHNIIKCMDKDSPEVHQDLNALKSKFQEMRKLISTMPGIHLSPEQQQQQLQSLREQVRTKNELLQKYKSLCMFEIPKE
UniProt Q8IX19: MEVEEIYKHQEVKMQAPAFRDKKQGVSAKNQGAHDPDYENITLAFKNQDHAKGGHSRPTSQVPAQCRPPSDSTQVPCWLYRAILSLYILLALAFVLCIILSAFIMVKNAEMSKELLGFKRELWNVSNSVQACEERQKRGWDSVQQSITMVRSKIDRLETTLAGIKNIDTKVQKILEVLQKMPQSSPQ
UniProt Q06413, whole entry, looked up: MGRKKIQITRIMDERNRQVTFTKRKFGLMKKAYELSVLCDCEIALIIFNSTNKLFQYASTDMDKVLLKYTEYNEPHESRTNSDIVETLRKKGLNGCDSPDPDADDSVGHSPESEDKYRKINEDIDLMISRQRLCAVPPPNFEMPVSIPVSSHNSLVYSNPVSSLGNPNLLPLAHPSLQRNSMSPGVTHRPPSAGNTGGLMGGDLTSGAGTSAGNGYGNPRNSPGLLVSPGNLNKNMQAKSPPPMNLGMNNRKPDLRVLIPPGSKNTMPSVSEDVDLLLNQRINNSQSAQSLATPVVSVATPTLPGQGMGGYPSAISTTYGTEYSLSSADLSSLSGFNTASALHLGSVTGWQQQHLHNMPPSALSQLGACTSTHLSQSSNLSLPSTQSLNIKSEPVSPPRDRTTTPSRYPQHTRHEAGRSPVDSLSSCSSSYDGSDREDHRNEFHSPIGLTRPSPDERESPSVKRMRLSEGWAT
UniProt Q9NX70: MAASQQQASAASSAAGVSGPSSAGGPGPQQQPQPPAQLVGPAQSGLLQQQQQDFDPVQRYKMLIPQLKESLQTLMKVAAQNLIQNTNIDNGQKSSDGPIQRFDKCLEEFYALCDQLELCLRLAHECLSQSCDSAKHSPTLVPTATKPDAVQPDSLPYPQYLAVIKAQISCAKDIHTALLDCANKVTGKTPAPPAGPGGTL
UniProt P21741: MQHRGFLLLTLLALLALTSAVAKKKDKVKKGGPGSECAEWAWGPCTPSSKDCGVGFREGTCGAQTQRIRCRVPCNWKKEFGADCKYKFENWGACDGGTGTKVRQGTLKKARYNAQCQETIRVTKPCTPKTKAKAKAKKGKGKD
UniProt Q8TC05: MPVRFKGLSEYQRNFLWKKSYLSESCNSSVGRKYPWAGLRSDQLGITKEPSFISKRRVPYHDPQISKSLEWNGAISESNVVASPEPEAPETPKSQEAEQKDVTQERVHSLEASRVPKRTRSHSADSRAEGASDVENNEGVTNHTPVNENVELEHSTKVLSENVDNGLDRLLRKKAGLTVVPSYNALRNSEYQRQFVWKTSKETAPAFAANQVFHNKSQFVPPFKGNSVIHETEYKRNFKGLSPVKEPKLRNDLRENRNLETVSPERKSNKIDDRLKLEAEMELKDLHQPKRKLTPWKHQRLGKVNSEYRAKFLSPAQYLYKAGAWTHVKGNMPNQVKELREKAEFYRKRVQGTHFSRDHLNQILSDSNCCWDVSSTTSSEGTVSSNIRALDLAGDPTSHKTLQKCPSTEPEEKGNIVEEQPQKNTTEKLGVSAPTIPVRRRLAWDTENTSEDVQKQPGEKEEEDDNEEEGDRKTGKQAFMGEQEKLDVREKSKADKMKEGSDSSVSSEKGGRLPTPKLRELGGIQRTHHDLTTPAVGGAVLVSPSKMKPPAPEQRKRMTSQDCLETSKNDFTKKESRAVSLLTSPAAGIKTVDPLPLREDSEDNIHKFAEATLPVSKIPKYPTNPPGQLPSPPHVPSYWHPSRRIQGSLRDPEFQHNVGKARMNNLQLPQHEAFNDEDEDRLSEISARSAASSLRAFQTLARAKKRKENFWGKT
UniProt Q14703: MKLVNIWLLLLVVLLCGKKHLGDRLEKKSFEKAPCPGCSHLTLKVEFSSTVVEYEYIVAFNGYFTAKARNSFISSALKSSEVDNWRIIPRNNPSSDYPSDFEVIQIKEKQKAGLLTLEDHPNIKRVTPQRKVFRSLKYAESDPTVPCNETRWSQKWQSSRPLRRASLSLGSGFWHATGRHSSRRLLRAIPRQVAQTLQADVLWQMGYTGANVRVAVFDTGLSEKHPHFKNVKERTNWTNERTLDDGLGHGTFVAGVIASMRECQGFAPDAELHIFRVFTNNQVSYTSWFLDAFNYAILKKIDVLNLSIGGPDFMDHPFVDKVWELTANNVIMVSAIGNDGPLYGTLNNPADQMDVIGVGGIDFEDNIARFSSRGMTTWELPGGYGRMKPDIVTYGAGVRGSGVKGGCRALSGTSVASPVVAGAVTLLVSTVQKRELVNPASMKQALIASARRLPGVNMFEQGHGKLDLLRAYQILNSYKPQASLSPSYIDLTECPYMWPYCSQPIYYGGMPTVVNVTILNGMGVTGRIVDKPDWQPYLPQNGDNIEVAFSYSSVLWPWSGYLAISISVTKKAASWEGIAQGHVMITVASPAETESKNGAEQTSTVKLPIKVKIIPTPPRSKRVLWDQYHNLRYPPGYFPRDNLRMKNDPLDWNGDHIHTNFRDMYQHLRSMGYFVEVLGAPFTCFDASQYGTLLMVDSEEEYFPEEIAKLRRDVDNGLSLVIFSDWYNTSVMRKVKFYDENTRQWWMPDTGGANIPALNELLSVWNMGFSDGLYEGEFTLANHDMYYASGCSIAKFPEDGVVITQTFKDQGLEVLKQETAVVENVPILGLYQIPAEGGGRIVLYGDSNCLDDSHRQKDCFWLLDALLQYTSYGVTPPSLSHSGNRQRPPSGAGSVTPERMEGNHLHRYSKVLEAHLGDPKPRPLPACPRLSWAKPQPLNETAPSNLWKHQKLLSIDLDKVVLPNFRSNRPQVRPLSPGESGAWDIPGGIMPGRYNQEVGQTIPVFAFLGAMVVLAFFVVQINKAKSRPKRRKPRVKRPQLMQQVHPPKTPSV
UniProt Q9H204: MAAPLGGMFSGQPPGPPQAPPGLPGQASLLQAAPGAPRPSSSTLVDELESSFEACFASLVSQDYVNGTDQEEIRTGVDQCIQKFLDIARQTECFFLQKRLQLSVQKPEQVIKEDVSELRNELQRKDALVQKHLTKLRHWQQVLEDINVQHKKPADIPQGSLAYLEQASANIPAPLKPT
UniProt O00255, whole entry, looked up: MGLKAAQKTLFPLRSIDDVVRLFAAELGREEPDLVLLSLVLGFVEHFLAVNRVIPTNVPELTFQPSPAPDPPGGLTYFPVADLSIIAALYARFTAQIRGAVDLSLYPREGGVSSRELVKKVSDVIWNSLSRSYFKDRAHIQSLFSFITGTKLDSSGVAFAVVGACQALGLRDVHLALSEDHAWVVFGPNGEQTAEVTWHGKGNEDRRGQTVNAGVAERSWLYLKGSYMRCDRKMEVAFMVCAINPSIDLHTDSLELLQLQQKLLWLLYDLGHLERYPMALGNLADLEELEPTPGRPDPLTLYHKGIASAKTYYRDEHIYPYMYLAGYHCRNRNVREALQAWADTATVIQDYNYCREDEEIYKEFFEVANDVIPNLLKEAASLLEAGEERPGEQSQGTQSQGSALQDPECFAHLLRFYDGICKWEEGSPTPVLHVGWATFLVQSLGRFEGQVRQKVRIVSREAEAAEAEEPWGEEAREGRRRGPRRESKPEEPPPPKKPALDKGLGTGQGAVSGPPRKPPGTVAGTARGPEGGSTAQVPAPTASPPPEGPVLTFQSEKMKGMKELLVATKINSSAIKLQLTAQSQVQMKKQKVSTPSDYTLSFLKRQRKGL
UniProt P55082: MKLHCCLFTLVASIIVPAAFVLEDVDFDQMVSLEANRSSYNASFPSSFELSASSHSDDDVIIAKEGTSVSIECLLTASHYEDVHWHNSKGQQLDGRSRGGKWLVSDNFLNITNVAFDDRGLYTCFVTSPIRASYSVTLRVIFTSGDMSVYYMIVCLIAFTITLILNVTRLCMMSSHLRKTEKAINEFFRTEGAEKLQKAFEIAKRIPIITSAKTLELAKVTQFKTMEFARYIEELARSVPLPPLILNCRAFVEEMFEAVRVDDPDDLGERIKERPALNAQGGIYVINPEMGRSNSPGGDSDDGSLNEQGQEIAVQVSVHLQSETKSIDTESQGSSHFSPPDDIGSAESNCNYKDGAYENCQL
UniProt O95243: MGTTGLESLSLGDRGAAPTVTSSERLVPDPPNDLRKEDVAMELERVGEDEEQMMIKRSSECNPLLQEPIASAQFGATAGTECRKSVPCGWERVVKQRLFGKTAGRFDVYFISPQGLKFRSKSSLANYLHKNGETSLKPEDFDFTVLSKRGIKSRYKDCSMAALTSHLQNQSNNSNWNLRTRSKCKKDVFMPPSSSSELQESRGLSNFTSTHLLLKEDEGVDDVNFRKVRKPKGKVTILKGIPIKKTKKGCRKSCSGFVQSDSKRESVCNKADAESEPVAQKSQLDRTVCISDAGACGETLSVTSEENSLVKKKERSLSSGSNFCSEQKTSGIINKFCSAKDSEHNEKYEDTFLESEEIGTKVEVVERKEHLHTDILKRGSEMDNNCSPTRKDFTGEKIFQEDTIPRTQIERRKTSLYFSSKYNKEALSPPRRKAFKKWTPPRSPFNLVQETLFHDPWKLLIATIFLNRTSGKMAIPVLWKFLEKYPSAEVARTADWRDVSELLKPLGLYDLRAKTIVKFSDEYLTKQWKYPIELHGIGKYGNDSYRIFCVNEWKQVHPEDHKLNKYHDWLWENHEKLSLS
UniProt Q5VZF2: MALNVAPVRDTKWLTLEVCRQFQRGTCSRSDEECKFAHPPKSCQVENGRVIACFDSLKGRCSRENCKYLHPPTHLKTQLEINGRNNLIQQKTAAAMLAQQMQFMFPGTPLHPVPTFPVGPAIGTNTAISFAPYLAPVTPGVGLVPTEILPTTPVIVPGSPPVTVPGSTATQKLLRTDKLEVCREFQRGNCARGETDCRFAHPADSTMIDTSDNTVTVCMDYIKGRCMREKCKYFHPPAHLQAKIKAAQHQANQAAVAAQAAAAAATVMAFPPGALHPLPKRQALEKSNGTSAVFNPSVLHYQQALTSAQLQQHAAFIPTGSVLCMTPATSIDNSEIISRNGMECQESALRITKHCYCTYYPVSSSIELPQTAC
UniProt A4D2B0: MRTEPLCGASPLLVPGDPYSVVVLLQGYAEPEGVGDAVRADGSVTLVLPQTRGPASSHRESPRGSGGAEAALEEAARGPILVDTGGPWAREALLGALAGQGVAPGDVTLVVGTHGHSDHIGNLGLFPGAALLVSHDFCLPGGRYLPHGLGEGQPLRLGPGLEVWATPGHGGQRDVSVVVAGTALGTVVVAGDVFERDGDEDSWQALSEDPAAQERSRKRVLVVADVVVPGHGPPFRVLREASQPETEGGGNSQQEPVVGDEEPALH

What follows are targets tested with CC1=C(C2=C(C=C1)C(=O)C3=CC=CC=C3N2CCCN)C (assay: log2 fold change, soluble protein after heating vs DMSO (PISA); higher = thermal stabilisation; K562 lysate, 10 uM; active = over 0.2 and 3.5 SD of the protein, either way, in both replicates (recomputed)).
Summary of the method: (§1)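 Quantification was by TMTpro 16plex LC-MS/MS with equalised channel sums, applied to the supernatant after 21,000xg for 90 min. Samples were crude K562 extract at 1 mg/mL protein in PBS pH 7.4 with 1 mM MgCl2, treated with 10 μM compound for 30 min, heated for 3 min across 48°C-58°C, pooled and brought to 0.5% NP-40 at 4°C. Values are log-two fold changes in thermal stability relative to solvent controls, from duplicates.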

Target | log2 fold change
MFSD12 isoform 3 (UniProt Q6NUT3) | inactive: -0.041
MED11 (UniProt Q9P086) | inactive: 0.051
MDM4 (UniProt O15151) | inactive: 0.216
MCTS2P, A0A3B3IRV3 | inactive: 0
MELK (UniProt Q14680) | inactive: -0.044
MEGF9 (UniProt Q9H1U4) | inactive: 0.049
MED9 (UniProt Q9NWA0) | inactive: -0.033
MCEMP1 (UniProt Q8IX19) | inactive: -0.114
MEF2C isoform 2 (UniProt Q06413) | inactive: -0.173
MED29 (UniProt Q9NX70) | inactive: -0.121
MEX3A (UniProt A1L020) | inactive: 0.003
MDK (UniProt P21741) | inactive: 0.025
MFSD9 (UniProt Q8NBP5) | inactive: -0.153
MDM1 (UniProt Q8TC05) | inactive: 0.022
MBTPS1 (UniProt Q14703) | inactive: -0.041
MED28 (UniProt Q9H204) | inactive: -0.039
MEN1 (UniProt O00255) | inactive: -0.051
MFAP3 (UniProt P55082) | inactive: -0.198
MBD6 (UniProt Q96DN6) | inactive: -0.292
MEIOB isoform 2 (UniProt Q8N635) | inactive: -0.239
MBD4 (UniProt O95243) | inactive: 0.006
MFSD6 (UniProt Q6ZSS7) | inactive: -0.256

What follows are targets tested with CC1=C(C=C(C=C1)NC(=O)C2=CC(=CC=C2)C(C)(C)C#N)NC3=CC4=C(C=C3)N=CN(C4=O)C in the same assay as above.
Summary of the method: as §1

Target | log2 fold change
MFSD12 isoform 3 (UniProt Q6NUT3) | inactive: 0.048
MED11 (UniProt Q9P086) | inactive: 0.064
MCPH1 (UniProt Q8NEM0) | inactive: 0.135
MDM4 (UniProt O15151) | inactive: -0.033
MCTS2P, A0A3B3IRV3 | inactive: -0.148
MELK (UniProt Q14680) | inactive: 0.001
MDM2 isoform 11 (UniProt Q00987) | inactive: -0.074
MED9 (UniProt Q9NWA0) | inactive: 0.023
MCEMP1 (UniProt Q8IX19) | inactive: -0.099
MBNL2 (UniProt Q5VZF2) | inactive: -0.039
MBTD1 (UniProt Q05BQ5) | inactive: -0.066
MEF2C isoform 2 (UniProt Q06413) | inactive: -0.022
MED29 (UniProt Q9NX70) | inactive: -0.016
MBTPS2 (UniProt O43462) | inactive: 0.044
MDK (UniProt P21741) | inactive: -0.131
MFSD14B (UniProt Q5SR56) | inactive: -0.049
MBTPS1 (UniProt Q14703) | inactive: 0.008
MED28 (UniProt Q9H204) | inactive: 0.11
MEN1 (UniProt O00255) | inactive: 0.207
MFAP3 (UniProt P55082) | inactive: -0.02
MELTF (UniProt P08582) | inactive: 0.088
MEIS1 (UniProt O00470) | inactive: -0.04
MBD4 (UniProt O95243) | inactive: -0.007
METTL15 (UniProt A6NJ78) | inactive: -0.058
MEX3C (UniProt Q5U5Q3) | inactive: 0.064

The targets below were run with CC1=C(C=C(C=C1)NC(=O)C2=CC(=CC=C2)N(C)C)NC(=O)C3=CC=C(C=C3)O in the same assay as above.
Summary of the method: as §1

Target | log2 fold change
MATK isoform 2 (UniProt P42679) | inactive: -0.016
MCTS2P, A0A3B3IRV3 | inactive: 0.031
MELK (UniProt Q14680) | inactive: 0.047
MEGF9 (UniProt Q9H1U4) | inactive: -0.02
MDM2 isoform 11 (UniProt Q00987) | inactive: 0.076
MED9 (UniProt Q9NWA0) | inactive: 0
MBNL2 (UniProt Q5VZF2) | inactive: -0.039
MBTD1 (UniProt Q05BQ5) | inactive: 0.07
MED29 (UniProt Q9NX70) | inactive: 0.013
MEX3A (UniProt A1L020) | inactive: -0.162
MDK (UniProt P21741) | inactive: 0.043
MFSD14B (UniProt Q5SR56) | inactive: -0.243
MDM1 (UniProt Q8TC05) | inactive: -0.019
MBTPS1 (UniProt Q14703) | inactive: 0.048
MED28 (UniProt Q9H204) | inactive: 0.021
MEN1 (UniProt O00255) | inactive: -0.084
MFAP3 (UniProt P55082) | inactive: 0.08
METAP2 isoform 2 (UniProt P50579) | inactive: -0.246
METTL15 (UniProt A6NJ78) | inactive: 0.041
MFSD6 (UniProt Q6ZSS7) | inactive: -0.01

What follows are targets tested with CC1=CC=C(C=C1)SC2=C3C=C(SC3=CN=C2)C(=O)N in the same assay as above.
Summary of the method: as §1

Target | log2 fold change
MATK isoform 2 (UniProt P42679) | inactive: -0.025
MFSD12 isoform 3 (UniProt Q6NUT3) | inactive: -0.066
MCTS2P, A0A3B3IRV3 | inactive: -0.14
MELK (UniProt Q14680) | inactive: 0.104
MED9 (UniProt Q9NWA0) | inactive: 0.053
MCEMP1 (UniProt Q8IX19) | inactive: -0.018
MBNL2 (UniProt Q5VZF2) | inactive: -0.059
MEF2C isoform 2 (UniProt Q06413) | inactive: 0.049
MDK (UniProt P21741) | inactive: 0.01
MCFD2 isoform 2 (UniProt Q8NI22) | inactive: 0.217
MDM1 (UniProt Q8TC05) | inactive: -0.079
METTL23 (UniProt Q86XA0) | inactive: 0.083
MED28 (UniProt Q9H204) | inactive: 0.009
MEN1 (UniProt O00255) | inactive: 0.285
MBD4 (UniProt O95243) | inactive: 0.127
MBLAC1 (UniProt A4D2B0) | inactive: 0.023
